According to PubChem BioAssay AID2685 (National Center for Advancing Translational Sciences (NCATS), 2010):
The other results are listed elsewhere or left out. Shown are side measurements of this screen, not its main read-out; they come without a call. Most of these compounds were active or inconclusive in the main read-out, so they are no random draw. Words in brackets tell the shape of the fitted curve; partial curves, single points and poor fits give uncertain potencies.

Assay: qHTS Assay for Lipid Storage Modulators in Drosophila S3 Cells;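 as to cell number change: cells counted by Cell Tracker Red CMTPX staining in the red channel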
Conditions: BODIPY lipid droplet fluorescence, 18-24 h; for cell number change: measured here: cell count max response, cells fed with added oleic acid
In short: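 Drosophila S3 cells loaded with oleic acid (400 uM, as added) and compounds at several concentrations; lipid droplets imaged by 488-nm laser-scanning cytometry, 500–530 nm intensity and object ratio to cell channel. Percent activity normalized to 20 uM Triacsin C.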

[1] = measured here: cell number channel AC50, cells fed with added oleic acid
[2] = measured here: lipid fluorescence (Fed channel) AC50, cells fed with added oleic acid

Structure (SMILES)	AC50 [1]	cell number change	AC50 [2]
CCC(=O)c1ccc(OCC(=O)OCC(=O)Nc2c(C)n(C)n(-c3ccccc3)c2=O)cc1	0.00411 µM [falling, full curve, poor fit]		
CN(Cc1cc(=O)[nH]c2ccccc12)C(=O)c1ccccc1		12.2%	2.31 µM [falling, partial curve]
O=C(c1ccc(F)c(S(=O)(=O)N2CCOCC2)c1)N(c1ccccc1)c1ccccn1		17.8%	
Cc1ccc(S(=O)(=O)Nc2ccccc2CNc2ncc(Br)cc2Br)cc1		-0.0785%	18.4 µM [falling, single point]
O=C(CSc1nc(N2CCOCC2)nc(N2CCOCC2)n1)Nc1ccc(Cl)cc1Cl	23.1 µM [rising, partial curve]	98.6%	
O=C(O)c1ccc(Nc2nc(-c3ccc([N+](=O)[O-])cc3)nc3ccccc23)cc1		7.08%	
CNC(=O)C1CN(C(=O)c2cccc(S(=O)(=O)N3c4ccccc4CC3C)c2)c2ccccc2O1 (centres undefined)		-6.1%	6.51 µM [rising, single point]
CS(=O)(=O)N(CC(=O)Nc1cc(Cl)ccc1Cl)c1ccccc1Cl	2.06 µM [rising, partial curve]		18.4 µM [rising, partial curve]
Cc1ccc(C(Sc2ccccc2)C(Cn2cncn2)C(=O)c2ccccc2)cc1 (centres undefined)		1.74%	
COc1cccc(CNC(=O)COc2cc(O)c3c(c2)OC(C)(C)CC3=O)c1		-0.971%	
Cc1nn(CC2CC2)c(=O)n1-c1ccccc1F	0.517 µM [falling, full curve]	-53.3%	13 µM [falling, partial curve]
C[C@@H](C(=O)Nc1nc(-c2ccccn2)cs1)N1C(=O)C2CCCCC2C1=O (some centres undefined)	1.46 µM [rising, full curve, poor fit]	-10.7%	
NS(=O)(=O)c1ccc(NC(=O)COC(=O)CCNC(=O)NC23CC4CC(CC(C4)C2)C3)cc1		1.45%	0.116 µM [falling, single point]
COc1ccc(OC)c(NC(=O)Nc2nnc(N3CCC(C)CC3)s2)c1			9.2 µM [rising, partial curve]
COc1ccc(S(=O)(=O)Cc2ccc(C(=O)NCc3ccc(F)cc3)o2)cc1		-6.36%	0.291 µM [rising, partial curve, poor fit]
COc1ccc(OC)c(-c2nc3c(C)n[nH]c(=O)c3[nH]2)c1			0.82 µM [rising, single point]
CCOC(=O)c1cccc(NC(=O)C2CCN(S(=O)(=O)c3cnc[nH]3)CC2)c1		11.2%	
O=C(CCn1nc(-c2ccccc2)ccc1=O)NCCCN1CCCCCC1	0.291 µM [rising, full curve, poor fit]	40.3%	
O=C(NC(NC(=S)Nc1ccccc1Cl)C(Cl)(Cl)Cl)c1cccc(Cl)c1 (centres undefined)		-20.3%	29.1 µM [falling, single point]
O=C(Nc1cccc(NC(=O)c2cccs2)c1)c1ccco1		-11.4%	6.51 µM [rising, single point]

Structure (SMILES)	AC50 [1]	cell number change	AC50 [2]
CCOc1ccc(NC(=O)NCc2ccco2)cc1		22.5%	0.206 µM [rising, full curve, poor fit]
Cc1cccc(N2CCN(CC(=O)Nc3nccs3)CC2)c1C	2.59 µM [rising, single point]	13.1%	
CN1CCN(C(c2ccc(C(F)(F)F)cc2)c2ccc3cccnc3c2O)CC1 (centres undefined)	0.206 µM [falling, full curve, poor fit]	-33.3%	
CCc1ccc(NC(=O)c2sccc2-n2cccc2)cc1	9.2 µM [rising, partial curve]	59.2%	2.59 µM [rising, partial curve]
O=C(CCN1C(=O)/C(=C/c2ccccc2Cl)SC1=S)NNC(=O)c1ccccc1O		17.6%	6.51 µM [falling, single point]
CCN(c1ccccc1)S(=O)(=O)c1ccc(Cl)c(NC(=O)CN2C(=O)NC3(CCCC3)C2=O)c1		14.1%	18.4 µM [rising, single point]
O=C(N/N=C1\CCc2ccccc21)c1ccc(O)cc1		4.92%	
O=C(COc1ccccc1F)NC1CCN(Cc2ccccc2)CC1	13 µM [falling, partial curve]	-47.5%	7.31 µM [falling, single point]
CCOc1ccc(S(=O)(=O)Nc2cc(Cl)ccc2O)cc1		-102%	29.1 µM [falling, single point]
CCCCOC(=O)C[N+](C)(C)CCOC1CC2CCC1(C)C2(C)C (centres undefined)	29.1 µM [falling, single point]	-33.9%	18.4 µM [falling, single point]
CC(C)(C)c1ccc(CSc2nc(N)cc(=O)[nH]2)cc1	20.6 µM [falling, partial curve]	-60.4%	10.3 µM [falling, partial curve]
O=C(c1c(F)cccc1F)N(Cc1ccccc1)Cc1ccccc1		8.7%	29.1 µM [falling, single point]
CCN(CC)S(=O)(=O)c1cc(C)c(C)cc1OCC(=O)NC1CCCC1		-9.93%	6.51 µM [rising, single point]
CC1(C)CC(NC(=O)c2ccc(Cl)c(S(=O)(=O)N(Cc3ccccc3)c3ccccc3)c2)CC(C)(C)N1		-7.72%	0.82 µM [falling, full curve]
COc1ccc(N2CCN(C(=O)COC(=O)CSc3ccccc3)CC2)cc1	20.6 µM [rising, single point]	132%	6.51 µM [falling, single point]
CCN(CC)C(=O)NC1CCCCCCC1		20.6%	
CCCN(C(=O)CSc1nnnn1C)C1CCS(=O)(=O)C1 (centres undefined)		22.7%	6.51 µM [rising, single point]
COc1ccc(C2CC(=O)C(C=NCCN3CCN(C(C)=O)CC3)=C(O)C2)cc1 (centres undefined)		-0.231%	0.731 µM [falling, single point]
O=C(/C=C/c1ccncc1)c1ccc2c(c1)OCCO2	23.1 µM [falling, single point]	-61.7%	20.6 µM [falling, partial curve]
NC1=NC(=O)/C(=C/c2ccsc2)S1			18.4 µM [rising, single point]

Structure (SMILES)	AC50 [1]	cell number change	AC50 [2]
O=C(COC(=O)c1ccc(S(=O)(=O)N2CCCC2)cc1)Nc1cccc(F)c1		4.89%	4.11 µM [falling, single point]
O=C(N/N=C\c1ccc[nH]1)C1COc2ccccc2O1 (centres undefined)			6.51 µM [falling, single point]
O=C(Nc1nc(-c2ccco2)c(-c2ccco2)s1)C1CCC1		8.11%	
CN1C(=O)C(O)(CC(=O)/C=C/c2ccco2)c2cc(Br)ccc21 (centres undefined)		2.11%	2.91 µM [falling, single point]
COc1cc2c(-c3ccc4cc[nH]c4c3)c(-c3ccc(C#N)cc3)oc(=O)c2cc1OC	0.82 µM [falling, full curve, poor fit]	-22.1%	0.82 µM [falling, partial curve, poor fit]
CCOc1ccc(C2C(C#N)=C(C)NC3=C2C(=O)c2ccccc23)cc1 (centres undefined)	0.103 µM [rising, full curve, poor fit]	-0.931%	0.326 µM [rising, full curve]
COc1ccc(C=O)cc1Cn1c(=O)n(CCC(=O)NCc2ccco2)c(=O)c2sccc21		5.4%	0.146 µM [falling, single point]
COC(=O)c1ccc(N2C(=O)c3ccc(OC)c(OC)c3C2=O)cc1		-4.36%	4.11 µM [rising, partial curve]
O=C(Cc1ccccc1)NNC(=S)Nc1ccccc1		-24.6%	23.1 µM [falling, single point]
CCOC(=O)C1CCN(C(=O)C2CCN(S(=O)(=O)c3cc(Cl)ccc3OCC)CC2)CC1	29.1 µM [falling, single point]	-30.7%	2.91 µM [falling, partial curve]
O=C(CCl)N1N=C(c2cccs2)CC1c1ccco1 (centres undefined)		-18.7%	29.1 µM [falling, single point]
Cc1cc(C)c(-c2cc(NC(=O)CSc3n[nH]c(N)n3)n(-c3ccccc3)n2)cc1C	0.164 µM [rising, full curve, poor fit]		6.51 µM [rising, partial curve, poor fit]
Cc1onc(-c2ccccc2Cl)c1C(=O)N1CCCCC1		5.46%	0.206 µM [rising, single point]
O=C(Cc1ccc(F)cc1)N1CCC(CC2CC(c3ccc(Cl)cc3)=NO2)(C(=O)NCC2CCCCC2)CC1 (centres undefined)	2.59 µM [rising, partial curve, poor fit]	35%	0.092 µM [falling, full curve, poor fit]
COc1ccccc1CNC(=O)N1CCN(S(=O)(=O)c2ccccc2)CC1	0.326 µM [rising, full curve, poor fit]	32.9%	
O=C1CN(C(=O)C2CC2)c2ccccc2N1		-32.1%	
COc1ccc(CC(=O)NC2CCN(CC(=O)Nc3ccc4c(c3)OCCO4)CC2)cc1OC		15.6%	
CNc1nc(NCCOC23CC4CC(CC(C4)C2)C3)nc(OCC(F)(F)F)n1	18.4 µM [rising, single point]	134%	
COc1ccc(/C=C/C(=O)NC(=S)NNC(=O)c2cccs2)cc1OC		9.39%	14.6 µM [rising, partial curve]

Four records picked at random from the list so far:
Structure (SMILES)	AC50 [1]	cell number change	AC50 [2]
COc1ccccc1CNC(=O)N1CCN(S(=O)(=O)c2ccccc2)CC1	0.326 µM [rising, full curve, poor fit]	32.9%	
CNc1nc(NCCOC23CC4CC(CC(C4)C2)C3)nc(OCC(F)(F)F)n1	18.4 µM [rising, single point]	134%	
COc1ccc(CC(=O)NC2CCN(CC(=O)Nc3ccc4c(c3)OCCO4)CC2)cc1OC		15.6%	
COc1ccc(/C=C/C(=O)NC(=S)NNC(=O)c2cccs2)cc1OC		9.39%	14.6 µM [rising, partial curve]
